Several values for one entry are separate records, joined by “and”; a condition that tells them apart may be missing. Equal values may be shown once. The list shows a part of the results. Repeats in this data set agree poorly, so a single value says little.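 HEK293T cells were given each compound shortly before transfection with a reporter in which red mCherry is followed by the SARS-CoV-2 frameshift element and then GFP in the −1 frame, so GFP appears only after frameshifting.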

The source of these data is the supplement of paper PMC8256030.

One test has as its system SARS-CoV-2 -1 PRF reporter mCherry-FSE-GFP(-1). Kind of test: mCherry (red) intensity as percent of control; higher = higher upstream reporter expression. Particulars: 10 µM; 24 h; HEK293T.
For `COc1ccc2c3c1O[C@H]1[C@@H](O)C=C[C@H]4[C@@H](C2)NCC[C@@]341`, the mCherry was determined as 105%.

In turn, `C[C@]12CC[C@H]3[C@@H](CC[C@@]45O[C@@H]4C(O)=C(C#N)C[C@]35C)[C@@H]1CC[C@@H]2O` [trilostane] yielded a mCherry of 91.8%.

`CCOP(=O)(OCC)O/C(=C\Cl)c1ccc(Cl)cc1Cl` [clofenvinfos] yielded a mCherry of 76.1%.

For the molecule `FC(F)(F)c1cccc(C2CNCCO2)c1` (stereo not given) [flumexadol], the mCherry is 108%.

Consider `CCC1(c2ccccc2)C(=O)NC(=O)N(C)C1=O` (stereo not given) [methylphenobarbital], for which the mCherry amounted to 89.4%.

Regarding `CCC(=O)O[C@H]1CC[C@H]2[C@@H]3CCC4=CC(=O)CC[C@]4(C)[C@H]3CC[C@]12C` [Testosterone Propionate], the mCherry was found to be 91.2%.

In turn, `C=CCN1CC[C@]23c4c5ccc(O)c4O[C@H]2[C@@H](O)C=C[C@H]3[C@H]1C5` [nalorphine] showed a mCherry of 99.9%.

Take `CCN(CC)Cc1nccn1-c1ccc([N+](=O)[O-])cc1C(=O)c1ccccc1Cl` [nizofenone]: the mCherry turned out to be 96.7%.

Turning to `NC(=O)C[S+]([O-])C(c1ccccc1)c1ccccc1` (stereo not given) [modafinil], the mCherry worked out at 110%.

With `CCOC(=O)C1(c2ccccc2)CCN(C)CC1` [pethidine], the mCherry was 76.3%.

As for `C[N+](C)(C)CCCCCCCCCC[N+](C)(C)C` [decamethonium bromide], the mCherry is 90.4% and 89.8%.

Regarding `Cc1ccc(-c2nc3ccc(C)cn3c2CC(=O)N(C)C)cc1` [zolpidem], the mCherry is 104% and 107%.

Molecule `O=C1CC[C@@]2(O)[C@H]3Cc4ccc(O)c5c4[C@@]2(CCN3CC2CC2)[C@H]1O5` displayed a mCherry of 95.9%.

Molecule `CCN(C)C(C)C(O)c1ccccc1` (stereo not given) [etafedrine] showed a mCherry of 57.2%.

Consider `CN=C1CN(O)C(c2ccccc2)=c2cc(Cl)ccc2=N1` [Libritabs], for which the mCherry was found to be 113%.

As for `CN(C)[C@@H]1C(=O)C(C(N)=O)=C(O)[C@@]2(O)C(=O)C3=C(O)c4c(O)ccc(Cl)c4[C@@](C)(O)[C@H]3C[C@@H]12` [chlortetracycline], the mCherry is 94.6%.

`Cc1ccc(N=CN(C)C=Nc2ccc(C)cc2C)c(C)c1` gave a mCherry of 91.4%.

`C[C@]12CCC(=NOCCN)C[C@@H]1C(=O)C[C@@H]1[C@@H]2CC[C@]2(C)C(=O)CC[C@@H]12` [istaroxime] gave a mCherry of 10.5%.

The molecule `CC(C)(C)NCC(O)c1ccccc1F` (stereo not given) [flerobuterol] gave a mCherry of 102%.

As to `CCCC(C)(COC(N)=O)COC(=O)NC1CC1` (stereo not given) [lorbamate], the mCherry was found to be 84%.

Take `NC1=NCC(c2ccc(C(F)(F)F)cc2)O1` (stereo not given) [fluminorex]: the mCherry was found to be 104%.

`CN1[C@@H]2C[C@@H](OC(=O)[C@H](CO)c3ccccc3)C[C@H]1[C@@H]1O[C@@H]12` returned a mCherry of 101%.

Regarding `CC(=O)[C@@]1(O)CC[C@H]2[C@@H]3CCC4=CC(=O)CC[C@]4(C)[C@@]3(F)[C@@H](O)C[C@@]21C` [flugestone], the mCherry was 88.7%.

Regarding `CCOC(=O)C(c1c(O)c2ccccc2oc1=O)c1c(O)c2ccccc2oc1=O` [ethyl biscoumacetate], the mCherry turned out to be 60.4%.

As to `CNC(C)CC1CCCC1` (stereo not given) [cyclopentamine], the mCherry is 91.5%.

Molecule `C[C@H]1CCC[C@@H](O)CCCCCc2cc(O)cc(O)c2C(=O)O1` [taleranol] registered a mCherry of 85.8%.

Take `CN[C@]1(c2ccccc2Cl)CCCCC1=O` [esketamine]: the mCherry was 86.6%.

Take `Oc1ccc2c3c1O[C@H]1c4oc5ccccc5c4C[C@@]4(O)[C@@H](C2)N(CC2CC2)CC[C@]314` [Naltriben methanesulfonate hydrate]: the mCherry is 76.1%.

For `O=c1cccc2n1C[C@@H]1CNC[C@H]2C1`, the mCherry turned out to be 96%.

In the case of `C[C@]12CC[C@H]3[C@@H](CCC4=C(Cl)C(=O)CC[C@@]43C)[C@@H]1CC[C@@H]2O` [clostebol], the mCherry was found to be 94.4%.

`CC[C@H]1CN2CC[C@H]1C[C@@H]2[C@@H](O)c1ccnc2ccc(OC)cc12` had a mCherry of 104%.

Take `CC(C(=O)c1ccccc1)N(C)C` (stereo not given) [metamfepramone]: the mCherry was 95.4%.

Molecule `CNC1(c2ccccc2Cl)CCCCC1=O` (stereo not given) [ketamine] displayed a mCherry of 90.8%.

`O=C(NC(=O)c1c(F)cccc1F)Nc1ccc(Cl)c(Oc2ncc(C(F)(F)F)cc2Cl)c1` [fluazuron] came in with a mCherry of 127%.

For the molecule `CC(C)=CC1C(C(=O)OCc2cccc(Oc3ccccc3)c2)C1(C)C` (stereo not given) [phenothrin], the mCherry was determined as 109%.

For the molecule `C[C@]12COC(=O)C[C@@H]1CC[C@@H]1[C@@H]2CC[C@@]2(C)[C@H]1CC[C@]2(C)O` [oxandrolone], the mCherry stood at 86.5%.

`CN[C@H](C)Cc1ccccc1` [levmetamfetamine] came in with a mCherry of 95.9%.

Molecule `N.N.[Cl][Pt][Cl]` had a mCherry of 98.6%.

Molecule `COC(C)(C)CCCC(C)C/C=C/C(C)=C/C(=O)OC(C)C` (stereo not given) came in with a mCherry of 103%.

`Cc1ccc(NC2=NCCN2)c(Cl)c1` [tolonidine]: the mCherry stood at 43.6%.

Another test shares this test system. Kind of test: percent effect, decrease of GFP/mCherry ratio (-1 PRF reporter) relative to controls; higher = stronger frameshift inhibition. The conditions noted are these: 10 µM; 24 h; HEK293T.
Take `COc1ccc2c3c1O[C@H]1[C@@H](O)C=C[C@H]4[C@@H](C2)NCC[C@@]341`: the percent effect is -0.643%.

`C[C@]12CC[C@H]3[C@@H](CC[C@@]45O[C@@H]4C(O)=C(C#N)C[C@]35C)[C@@H]1CC[C@@H]2O` [trilostane]: the percent effect is -2.44%.

As for `CCOP(=O)(OCC)O/C(=C\Cl)c1ccc(Cl)cc1Cl` [clofenvinfos], the percent effect was 1.81%.

In the case of `FC(F)(F)c1cccc(C2CNCCO2)c1` (stereo not given) [flumexadol], the percent effect turned out to be 2.56%.

Turning to `CCC1(c2ccccc2)C(=O)NC(=O)N(C)C1=O` (stereo not given) [methylphenobarbital], the percent effect is -4.29%.

For the molecule `CCC(=O)O[C@H]1CC[C@H]2[C@@H]3CCC4=CC(=O)CC[C@]4(C)[C@H]3CC[C@]12C` [Testosterone Propionate], the percent effect came to 0.0813%.

As to `C=CCN1CC[C@]23c4c5ccc(O)c4O[C@H]2[C@@H](O)C=C[C@H]3[C@H]1C5` [nalorphine], the percent effect is -5.92%.

Turning to `CCN(CC)Cc1nccn1-c1ccc([N+](=O)[O-])cc1C(=O)c1ccccc1Cl` [nizofenone], the percent effect is -1.89%.

On to `NC(=O)C[S+]([O-])C(c1ccccc1)c1ccccc1` (stereo not given) [modafinil], for which the percent effect is -2.95%.

As for `CCOC(=O)C1(c2ccccc2)CCN(C)CC1` [pethidine], the percent effect is -1.47%.

Turning to `C[N+](C)(C)CCCCCCCCCC[N+](C)(C)C` [decamethonium bromide], the percent effect was 0.101% and -7.81%.

For the molecule `Cc1ccc(-c2nc3ccc(C)cn3c2CC(=O)N(C)C)cc1` [zolpidem], the percent effect was 0.0613% and 0.00515%.

For `O=C1CC[C@@]2(O)[C@H]3Cc4ccc(O)c5c4[C@@]2(CCN3CC2CC2)[C@H]1O5`, the percent effect is 2.55%.

Turning to `CCN(C)C(C)C(O)c1ccccc1` (stereo not given) [etafedrine], the percent effect came out at 1.4%.

`CN=C1CN(O)C(c2ccccc2)=c2cc(Cl)ccc2=N1` [Libritabs]: the percent effect came to 6.39%.

As for `CN(C)[C@@H]1C(=O)C(C(N)=O)=C(O)[C@@]2(O)C(=O)C3=C(O)c4c(O)ccc(Cl)c4[C@@](C)(O)[C@H]3C[C@@H]12` [chlortetracycline], the percent effect was -4.08%.

`Cc1ccc(N=CN(C)C=Nc2ccc(C)cc2C)c(C)c1`: the percent effect was -14.9%.

As for `C[C@]12CCC(=NOCCN)C[C@@H]1C(=O)C[C@@H]1[C@@H]2CC[C@]2(C)C(=O)CC[C@@H]12` [istaroxime], the percent effect was -9.71%.

As to `CC(C)(C)NCC(O)c1ccccc1F` (stereo not given) [flerobuterol], the percent effect is -10.1%.

Regarding `CCCC(C)(COC(N)=O)COC(=O)NC1CC1` (stereo not given) [lorbamate], the percent effect was -3.41%.

On to `NC1=NCC(c2ccc(C(F)(F)F)cc2)O1` (stereo not given) [fluminorex], for which the percent effect was 1.99%.

On to `CN1[C@@H]2C[C@@H](OC(=O)[C@H](CO)c3ccccc3)C[C@H]1[C@@H]1O[C@@H]12`, for which the percent effect was -1.19%.

For the molecule `CC(=O)[C@@]1(O)CC[C@H]2[C@@H]3CCC4=CC(=O)CC[C@]4(C)[C@@]3(F)[C@@H](O)C[C@@]21C` [flugestone], the percent effect amounted to 1.27%.

As for `CCOC(=O)C(c1c(O)c2ccccc2oc1=O)c1c(O)c2ccccc2oc1=O` [ethyl biscoumacetate], the percent effect is -0.961%.

Consider `CNC(C)CC1CCCC1` (stereo not given) [cyclopentamine], for which the percent effect was -0.763%.

Take `C[C@H]1CCC[C@@H](O)CCCCCc2cc(O)cc(O)c2C(=O)O1` [taleranol]: the percent effect came out at 0.0872%.

Consider `CN[C@]1(c2ccccc2Cl)CCCCC1=O` [esketamine], for which the percent effect came to 1.23%.

Turning to `Oc1ccc2c3c1O[C@H]1c4oc5ccccc5c4C[C@@]4(O)[C@@H](C2)N(CC2CC2)CC[C@]314` [Naltriben methanesulfonate hydrate], the percent effect was -3.1%.

Turning to `O=c1cccc2n1C[C@@H]1CNC[C@H]2C1`, the percent effect came out at 0.702%.

On to `C[C@]12CC[C@H]3[C@@H](CCC4=C(Cl)C(=O)CC[C@@]43C)[C@@H]1CC[C@@H]2O` [clostebol], for which the percent effect was -5.3%.

For `CC[C@H]1CN2CC[C@H]1C[C@@H]2[C@@H](O)c1ccnc2ccc(OC)cc12`, the percent effect amounted to 2.68%.

Turning to `CC(C(=O)c1ccccc1)N(C)C` (stereo not given) [metamfepramone], the percent effect is -6.67%.

With `CNC1(c2ccccc2Cl)CCCCC1=O` (stereo not given) [ketamine], the percent effect is -3.5%.

For `O=C(NC(=O)c1c(F)cccc1F)Nc1ccc(Cl)c(Oc2ncc(C(F)(F)F)cc2Cl)c1` [fluazuron], the percent effect was -3.16%.

Turning to `CC(C)=CC1C(C(=O)OCc2cccc(Oc3ccccc3)c2)C1(C)C` (stereo not given) [phenothrin], the percent effect was -0.393%.

Take `C[C@]12COC(=O)C[C@@H]1CC[C@@H]1[C@@H]2CC[C@@]2(C)[C@H]1CC[C@]2(C)O` [oxandrolone]: the percent effect is -2.51%.

`CN[C@H](C)Cc1ccccc1` [levmetamfetamine]: the percent effect was 0.239%.

Regarding `N.N.[Cl][Pt][Cl]`, the percent effect is -18.7%.

As for `COC(C)(C)CCCC(C)C/C=C/C(C)=C/C(=O)OC(C)C` (stereo not given), the percent effect was -0.597%.

For the molecule `Cc1ccc(NC2=NCCN2)c(Cl)c1` [tolonidine], the percent effect is -11.9%.
